We go through 1 molecule from paper PMC7994712 (Nature Communications, 2021).

By UniProt entry, the sequences of proteins in these tests, tags left out. Where a name states a change or a piece, a line headed by the entry shows the natural chain unless it says otherwise.
UniProt P30874: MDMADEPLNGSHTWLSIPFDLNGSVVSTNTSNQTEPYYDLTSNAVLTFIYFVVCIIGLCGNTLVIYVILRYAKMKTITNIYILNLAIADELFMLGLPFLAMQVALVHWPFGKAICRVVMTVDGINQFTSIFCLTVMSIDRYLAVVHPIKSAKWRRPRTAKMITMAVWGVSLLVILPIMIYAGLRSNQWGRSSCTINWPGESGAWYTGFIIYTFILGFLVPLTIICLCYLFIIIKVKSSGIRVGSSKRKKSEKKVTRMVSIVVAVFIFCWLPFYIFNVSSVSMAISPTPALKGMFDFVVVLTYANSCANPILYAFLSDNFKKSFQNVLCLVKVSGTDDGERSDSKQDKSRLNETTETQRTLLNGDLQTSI
UniProt Q62949: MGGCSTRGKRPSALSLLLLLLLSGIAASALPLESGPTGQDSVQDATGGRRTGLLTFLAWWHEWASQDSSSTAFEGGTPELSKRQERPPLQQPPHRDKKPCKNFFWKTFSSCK

These are yes or no findings as the source states them, for the method shown. Some binding calls cover weakened binding; strength is not graded here.

The target of the assay is Somatostatin receptor 2 (SSTR2) (human) (UniProt P30874). Put plainly: radioligand binding; competition with 125I-Tyr11 SST14 on CHO-K1 cells expressing one of the five human somatostatin receptors each; HEPES buffer pH 7.4; 10 concentrations from 1 pM to 10 µM; 2–4 h; membranes filtered and washed three times; nonspecific binding with 1 µM SST; IC50 by three-parameter dose-response fit; done at Eurofins Panlabs; only the binder purified.

Take PCKNFFWKTFSSCK (peptide, UniProt Q62949 99-112, internal disulfide bond between the two cysteines (cyclic peptide)) [Cortistatin-14 (r,mCST-14)]: the binding entry is on record as “binds”.
